Experimental data reported in the supplement of paper PMC10849652.
Some of the results follow.

Amino acid sequences for entries named in this document (tags omitted). A change or cut given only in a name is not applied to a line headed by its entry.
UniProt Q8WXA9: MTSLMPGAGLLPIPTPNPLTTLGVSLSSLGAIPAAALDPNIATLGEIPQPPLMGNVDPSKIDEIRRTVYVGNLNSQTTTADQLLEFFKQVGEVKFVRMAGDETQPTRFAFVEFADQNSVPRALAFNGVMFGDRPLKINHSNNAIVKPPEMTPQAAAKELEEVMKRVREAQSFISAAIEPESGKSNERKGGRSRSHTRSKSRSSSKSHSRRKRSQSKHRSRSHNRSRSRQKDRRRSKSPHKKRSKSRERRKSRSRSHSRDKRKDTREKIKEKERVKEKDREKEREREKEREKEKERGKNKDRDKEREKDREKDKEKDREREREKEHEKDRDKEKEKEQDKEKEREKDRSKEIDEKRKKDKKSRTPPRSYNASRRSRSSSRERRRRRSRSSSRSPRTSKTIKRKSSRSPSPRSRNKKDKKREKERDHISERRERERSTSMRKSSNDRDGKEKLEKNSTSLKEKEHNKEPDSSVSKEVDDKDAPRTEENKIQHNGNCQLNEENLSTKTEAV
UniProt P61009: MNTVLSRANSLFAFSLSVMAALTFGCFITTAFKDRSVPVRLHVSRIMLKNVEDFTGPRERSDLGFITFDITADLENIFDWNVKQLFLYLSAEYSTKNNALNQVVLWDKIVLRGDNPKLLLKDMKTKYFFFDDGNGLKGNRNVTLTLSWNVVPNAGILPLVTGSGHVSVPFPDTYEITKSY
UniProt Q8NEF9: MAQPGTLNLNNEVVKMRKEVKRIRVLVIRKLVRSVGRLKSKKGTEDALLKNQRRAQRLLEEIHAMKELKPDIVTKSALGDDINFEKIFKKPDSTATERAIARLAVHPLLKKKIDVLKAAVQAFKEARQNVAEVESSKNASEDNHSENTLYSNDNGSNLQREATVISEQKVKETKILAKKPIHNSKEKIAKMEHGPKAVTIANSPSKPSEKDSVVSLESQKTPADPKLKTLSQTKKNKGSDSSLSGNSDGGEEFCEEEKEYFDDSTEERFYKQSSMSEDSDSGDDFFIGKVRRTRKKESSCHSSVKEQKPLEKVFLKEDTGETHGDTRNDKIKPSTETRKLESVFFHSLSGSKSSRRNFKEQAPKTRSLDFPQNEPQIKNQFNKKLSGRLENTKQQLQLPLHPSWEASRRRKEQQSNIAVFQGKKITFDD
UniProt Q8NB90: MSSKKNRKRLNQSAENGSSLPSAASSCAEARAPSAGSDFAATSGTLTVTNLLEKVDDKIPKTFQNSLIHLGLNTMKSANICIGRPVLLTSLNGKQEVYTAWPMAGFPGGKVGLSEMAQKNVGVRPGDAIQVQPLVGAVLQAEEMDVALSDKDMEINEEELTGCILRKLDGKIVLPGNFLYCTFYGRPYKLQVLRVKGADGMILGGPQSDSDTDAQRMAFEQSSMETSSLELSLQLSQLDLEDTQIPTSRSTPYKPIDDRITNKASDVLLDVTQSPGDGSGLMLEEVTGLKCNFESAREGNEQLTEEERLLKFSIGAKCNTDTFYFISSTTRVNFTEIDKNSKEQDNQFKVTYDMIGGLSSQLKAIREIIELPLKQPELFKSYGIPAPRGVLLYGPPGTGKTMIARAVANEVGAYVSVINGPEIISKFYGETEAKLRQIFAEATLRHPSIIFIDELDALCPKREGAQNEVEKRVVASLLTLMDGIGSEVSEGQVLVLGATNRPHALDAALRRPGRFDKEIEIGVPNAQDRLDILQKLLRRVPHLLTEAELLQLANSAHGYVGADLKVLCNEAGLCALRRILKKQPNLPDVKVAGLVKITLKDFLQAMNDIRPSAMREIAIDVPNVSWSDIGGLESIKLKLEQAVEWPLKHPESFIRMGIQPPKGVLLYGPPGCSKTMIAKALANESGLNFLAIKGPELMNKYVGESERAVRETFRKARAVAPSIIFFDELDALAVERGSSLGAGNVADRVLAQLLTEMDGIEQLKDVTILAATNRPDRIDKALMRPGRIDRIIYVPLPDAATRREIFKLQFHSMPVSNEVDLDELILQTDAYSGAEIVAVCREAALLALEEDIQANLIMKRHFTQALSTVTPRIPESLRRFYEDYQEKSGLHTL
UniProt Q8NBT2: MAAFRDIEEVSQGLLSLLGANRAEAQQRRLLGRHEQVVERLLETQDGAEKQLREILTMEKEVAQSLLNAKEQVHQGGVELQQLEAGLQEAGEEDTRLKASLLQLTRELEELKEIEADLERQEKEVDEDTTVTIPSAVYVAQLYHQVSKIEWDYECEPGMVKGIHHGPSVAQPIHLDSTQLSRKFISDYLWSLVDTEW
UniProt Q9NYA1, whole entry, looked up: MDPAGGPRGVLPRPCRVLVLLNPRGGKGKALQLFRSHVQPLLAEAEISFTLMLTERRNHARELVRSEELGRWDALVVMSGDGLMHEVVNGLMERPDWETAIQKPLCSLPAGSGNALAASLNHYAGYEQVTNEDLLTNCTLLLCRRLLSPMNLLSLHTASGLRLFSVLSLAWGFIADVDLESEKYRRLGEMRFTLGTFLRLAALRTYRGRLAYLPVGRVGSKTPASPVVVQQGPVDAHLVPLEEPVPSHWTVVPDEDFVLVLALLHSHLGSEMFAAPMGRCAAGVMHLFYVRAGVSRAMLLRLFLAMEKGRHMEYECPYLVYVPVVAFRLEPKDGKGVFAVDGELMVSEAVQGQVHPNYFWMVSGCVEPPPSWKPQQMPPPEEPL
UniProt P15907: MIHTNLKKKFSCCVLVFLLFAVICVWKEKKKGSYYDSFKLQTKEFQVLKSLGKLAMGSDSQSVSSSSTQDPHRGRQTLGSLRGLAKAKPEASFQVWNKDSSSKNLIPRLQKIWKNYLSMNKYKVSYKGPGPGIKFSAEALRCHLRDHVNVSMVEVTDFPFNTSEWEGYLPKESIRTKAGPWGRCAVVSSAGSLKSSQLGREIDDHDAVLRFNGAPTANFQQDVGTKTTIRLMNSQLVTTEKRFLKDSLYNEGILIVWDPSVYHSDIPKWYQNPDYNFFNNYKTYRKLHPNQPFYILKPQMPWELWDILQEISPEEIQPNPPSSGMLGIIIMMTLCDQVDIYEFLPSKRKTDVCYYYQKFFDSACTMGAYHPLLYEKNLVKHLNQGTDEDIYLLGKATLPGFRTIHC
UniProt Q9HBM1: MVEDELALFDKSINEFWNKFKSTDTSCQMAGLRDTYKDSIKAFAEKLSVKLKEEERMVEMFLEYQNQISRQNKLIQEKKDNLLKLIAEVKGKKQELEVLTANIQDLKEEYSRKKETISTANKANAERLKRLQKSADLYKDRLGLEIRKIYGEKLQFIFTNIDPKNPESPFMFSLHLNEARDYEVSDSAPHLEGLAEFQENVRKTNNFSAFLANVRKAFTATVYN
UniProt P19623: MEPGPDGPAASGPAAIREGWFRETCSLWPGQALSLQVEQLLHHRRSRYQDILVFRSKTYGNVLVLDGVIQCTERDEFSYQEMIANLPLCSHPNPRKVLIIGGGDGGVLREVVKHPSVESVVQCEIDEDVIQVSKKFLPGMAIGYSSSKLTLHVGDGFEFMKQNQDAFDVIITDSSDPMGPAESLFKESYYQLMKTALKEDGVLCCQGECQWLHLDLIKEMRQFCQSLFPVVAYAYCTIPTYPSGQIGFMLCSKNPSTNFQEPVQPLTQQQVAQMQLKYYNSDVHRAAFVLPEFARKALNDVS
UniProt P50502: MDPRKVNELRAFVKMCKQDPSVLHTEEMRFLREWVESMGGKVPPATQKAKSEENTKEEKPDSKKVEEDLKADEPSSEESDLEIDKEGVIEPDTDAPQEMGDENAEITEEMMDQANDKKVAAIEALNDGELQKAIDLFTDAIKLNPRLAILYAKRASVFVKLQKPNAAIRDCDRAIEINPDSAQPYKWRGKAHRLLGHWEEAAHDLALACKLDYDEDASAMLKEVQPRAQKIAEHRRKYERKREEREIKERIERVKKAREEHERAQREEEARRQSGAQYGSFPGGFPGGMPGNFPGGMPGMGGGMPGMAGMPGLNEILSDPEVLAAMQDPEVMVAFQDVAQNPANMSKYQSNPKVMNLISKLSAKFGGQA
UniProt Q15005: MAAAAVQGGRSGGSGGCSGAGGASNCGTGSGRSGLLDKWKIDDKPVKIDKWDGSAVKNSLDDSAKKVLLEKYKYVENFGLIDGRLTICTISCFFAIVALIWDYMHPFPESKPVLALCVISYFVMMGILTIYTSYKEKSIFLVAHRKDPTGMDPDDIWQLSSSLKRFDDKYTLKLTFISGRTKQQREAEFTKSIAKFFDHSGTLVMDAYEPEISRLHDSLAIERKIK
UniProt P30626: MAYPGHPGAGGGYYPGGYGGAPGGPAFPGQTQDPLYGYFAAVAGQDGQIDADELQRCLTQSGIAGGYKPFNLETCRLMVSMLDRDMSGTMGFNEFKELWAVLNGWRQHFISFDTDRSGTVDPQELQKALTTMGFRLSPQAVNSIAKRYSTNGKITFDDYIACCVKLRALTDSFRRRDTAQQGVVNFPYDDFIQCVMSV
UniProt P37108: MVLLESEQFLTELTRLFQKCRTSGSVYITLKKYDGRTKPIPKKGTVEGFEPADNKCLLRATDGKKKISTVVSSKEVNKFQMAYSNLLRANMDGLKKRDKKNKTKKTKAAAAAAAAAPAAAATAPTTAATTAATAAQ
UniProt Q15532, whole entry, looked up: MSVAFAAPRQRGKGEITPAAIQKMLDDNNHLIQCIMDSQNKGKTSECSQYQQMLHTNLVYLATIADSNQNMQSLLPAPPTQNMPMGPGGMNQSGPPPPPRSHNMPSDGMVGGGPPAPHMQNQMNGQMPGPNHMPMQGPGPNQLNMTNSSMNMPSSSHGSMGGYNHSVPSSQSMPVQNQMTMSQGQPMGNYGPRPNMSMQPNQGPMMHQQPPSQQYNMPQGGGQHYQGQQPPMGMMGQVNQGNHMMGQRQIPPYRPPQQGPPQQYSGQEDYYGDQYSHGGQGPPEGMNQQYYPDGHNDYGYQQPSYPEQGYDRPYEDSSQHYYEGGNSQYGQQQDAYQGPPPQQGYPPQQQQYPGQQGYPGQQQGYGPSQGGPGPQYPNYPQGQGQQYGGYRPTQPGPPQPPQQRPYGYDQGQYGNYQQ
UniProt Q9UHB9: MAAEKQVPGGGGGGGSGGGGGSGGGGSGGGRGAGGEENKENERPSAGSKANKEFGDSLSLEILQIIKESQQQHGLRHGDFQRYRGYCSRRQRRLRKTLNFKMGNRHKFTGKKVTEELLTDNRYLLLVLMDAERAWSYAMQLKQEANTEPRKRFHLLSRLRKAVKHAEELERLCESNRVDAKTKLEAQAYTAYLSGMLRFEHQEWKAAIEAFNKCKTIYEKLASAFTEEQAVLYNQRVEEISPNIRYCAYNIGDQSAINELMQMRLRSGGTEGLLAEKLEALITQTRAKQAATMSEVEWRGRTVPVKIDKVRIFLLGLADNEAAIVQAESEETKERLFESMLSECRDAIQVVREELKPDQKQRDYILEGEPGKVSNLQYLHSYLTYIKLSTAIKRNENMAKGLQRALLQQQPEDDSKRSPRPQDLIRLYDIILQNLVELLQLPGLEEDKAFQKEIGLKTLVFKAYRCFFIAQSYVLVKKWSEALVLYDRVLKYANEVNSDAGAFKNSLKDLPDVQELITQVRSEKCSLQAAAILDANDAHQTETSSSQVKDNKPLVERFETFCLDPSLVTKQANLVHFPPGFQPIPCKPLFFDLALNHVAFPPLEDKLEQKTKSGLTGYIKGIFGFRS
UniProt Q13247: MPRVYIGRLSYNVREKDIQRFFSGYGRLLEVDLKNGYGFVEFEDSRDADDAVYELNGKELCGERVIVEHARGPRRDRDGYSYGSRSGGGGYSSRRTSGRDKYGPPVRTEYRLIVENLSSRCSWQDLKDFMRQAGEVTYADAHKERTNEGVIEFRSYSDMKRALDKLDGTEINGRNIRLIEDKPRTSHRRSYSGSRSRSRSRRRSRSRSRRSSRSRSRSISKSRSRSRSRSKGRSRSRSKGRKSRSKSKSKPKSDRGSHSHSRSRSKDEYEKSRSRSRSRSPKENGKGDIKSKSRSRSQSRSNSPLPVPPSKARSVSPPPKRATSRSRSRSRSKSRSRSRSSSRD

How the values were obtained:
Assay in all cases: log2 fold change, soluble protein after heating vs DMSO (PISA); higher = thermal stabilisation; K562 lysate, 10 uM; active = over 0.2 and 3.5 SD of the protein, either way, in both replicates (recomputed)
[1] = compound: Cc1cn(-c2cc(NC(=O)c3ccc(C)c(Nc4nccc(-c5cccnc5)n4)c3)cc(C(F)(F)F)c2)cn1 [nilotinib]
Method in brief: (§1)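 Thermal stability, expressed as log-two fold change relative to solvent controls, is given from duplicates. Crude K562 extract in PBS pH 7.4 with 1 mM MgCl2, at 1 mg/mL protein, was treated with 10 μM compound for 30 min and heated in aliquots for 3 min across 48°C-58°C. After pooling, adjustment to 0.5% NP-40 at 4°C and centrifugation at 21,000xg for 90 min, supernatant protein was measured by TMTpro 16plex LC-MS/MS with channel sums equalised.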

[2] = compound: Cc1nc(Nc2n[nH]c3c2CN(C(=O)N[C@H](CN(C)C)c2ccccc2)C3(C)C)c2sccc2n1
Method in brief: as §1

[3] = compound: Cc1nc(Nc2ncc(C(=O)Nc3c(C)cccc3Cl)s2)cc(N2CCN(CCO)CC2)n1 [dasatinib]
Method in brief: as §1

[4] = compound: Cc1ncc(-c2ccnc(Nc3ccc(S(C)(=O)=O)cc3)n2)n1C(C)C
Method in brief: as §1

[5] = compound: Cn1cc(-c2ccc3c(c2)CCN3C(=O)Cc2cccc(C(F)(F)F)c2)c2c(N)ncnc21
Method in brief: as §1

[6] = compound: Cn1cc(CNCC2CCN(c3ncc(C(=O)NO)cn3)CC2)c2ccccc21 [quisinostat]
Method in brief: as §1

[7] = compound: Cn1cncc1[C@@](N)(c1ccc(Cl)cc1)c1ccc2c(c1)c(-c1cccc(Cl)c1)cc(=O)n2C [tipifarnib]
Method in brief: as §1

[8] = compound: NC(=O)Nc1cc(-c2cccc(F)c2)sc1C(=O)N[C@H]1CCCNC1
Method in brief: as §1

[9] = compound: NC(=O)c1cnc(N[C@@H]2CCCC[C@@H]2N)nc1Nc1cccc(-n2nccn2)c1
Method in brief: as §1

[10] = compound: NC1(c2ccc(-c3nc4ccn5c(=O)[nH]nc5c4cc3-c3ccccc3)cc2)CCC1
Method in brief: as §1

[11] = compound: NCC(=O)Nc1ccc(-n2nc(C(F)(F)F)cc2-c2ccc3c(ccc4ccccc43)c2)cc1
Method in brief: as §1

[12] = compound: O=C(CCCCCCC(=O)Nc1ccccc1)NO [vorinostat]
Method in brief: as §1

[13] = compound: O=C(O)c1ccc2c(c1)nc(Nc1cccc(Cl)c1)c1ccncc12 [silmitasertib]
Method in brief: as §1

[14] = compound: O=C1NC(=O)C(c2cnc3ccccn23)=C1c1cn2c3c(cc(F)cc13)CN(C(=O)N1CCCCC1)CC2
Method in brief: as §1

[15] = compound: c1cn2cc(-c3ccc4cn[nH]c4c3)nc(Nc3ccc(N4CCOCC4)cc3)c2n1 [entospletinib]
Method in brief: as §1

Measured: log2 fold change

SREK1 isoform 2 (UniProt Q8WXA9)
inactive: [1] 0.035 | [2] -0.018 | [3] -0.025 | [4] -0.007 | [5] 0.017 | [6] 0.011 | [7] 0.017 | [8] -0.021 | [9] 0.013 | [10] 0.022 | [11] 0.064 | [12] 0.099 | [13] -0.047 | [14] 0.029 | [15] 0.005

SPCS3 (UniProt P61009)
inactive: [1] -0.018 | [2] 0.031 | [3] 0.028 | [4] 0 | [5] 0.064 | [6] 0.053 | [7] -0.022 | [8] -0.028 | [9] 0.017 | [10] 0.004 | [11] -0.039 | [12] 0.116 | [13] 0.022 | [14] -0.088 | [15] 0.029

SRGAP2 (UniProt O75044)
inactive: [1] -0.062 | [2] -0.028 | [3] -0.005 | [4] 0.018 | [5] 0.016 | [6] 0.017 | [7] 0.001 | [8] 0.004 | [9] 0.003 | [10] 0.015 | [11] 0.03 | [12] -0.163 | [13] -0.014 | [14] -0.05 | [15] 0.011

SRFBP1 (UniProt Q8NEF9)
inactive: [1] -0.02 | [2] -0.015 | [3] -0.101 | [4] -0.011 | [5] -0.113 | [6] 0.014 | [7] 0.003 | [8] 0.031 | [9] -0.032 | [10] 0.054 | [11] -0.014 | [12] 0.081 | [13] -0.067 | [14] 0.014 | [15] -0.012

SPATA5 (UniProt Q8NB90)
inactive: [1] 0.001 | [2] 0.006 | [3] -0.052 | [4] -0.002 | [5] 0.011 | [6] -0.023 | [7] -0.002 | [8] 0.03 | [9] 0.001 | [10] -0.064 | [11] 0.005 | [12] -0.247 | [13] 0.048 | [14] -0.011 | [15] 0.013

2 neighbouring entries from above:
SREK1 isoform 2 (UniProt Q8WXA9)
inactive: [1] 0.035 | [2] -0.018 | [3] -0.025 | [4] -0.007 | [5] 0.017 | [6] 0.011 | [7] 0.017 | [8] -0.021 | [9] 0.013 | [10] 0.022 | [11] 0.064 | [12] 0.099 | [13] -0.047 | [14] 0.029 | [15] 0.005

SPCS3 (UniProt P61009)
inactive: [1] -0.018 | [2] 0.031 | [3] 0.028 | [4] 0 | [5] 0.064 | [6] 0.053 | [7] -0.022 | [8] -0.028 | [9] 0.017 | [10] 0.004 | [11] -0.039 | [12] 0.116 | [13] 0.022 | [14] -0.088 | [15] 0.029

Additional records follow:

SPC24 (UniProt Q8NBT2)
inactive: [1] 0.022 | [2] 0.02 | [3] -0.023 | [4] -0.001 | [5] -0.013 | [6] 0 | [7] 0.01 | [8] -0.053 | [9] -0.014 | [10] 0.02 | [11] -0.016 | [12] -0.222 | [13] -0.004 | [14] 0.005 | [15] -0.023

SPHK1 isoform 2 (UniProt Q9NYA1)
inactive: [1] 0.03 | [2] -0.034 | [3] -0.007 | [4] -0.071 | [5] 0.025 | [6] 0.084 | [7] -0.058 | [8] -0.028 | [9] -0.005 | [10] 0.052 | [11] 0.091 | [12] -0.408 | [13] 0.089 | [14] -0.167 | [15] 0.032

ST6GAL1 (UniProt P15907)
inactive: [1] -0.084 | [2] -0.037 | [3] 0.028 | [4] 0.008 | [5] -0.012 | [6] -0.044 | [7] -0.027 | [8] 0.016 | [9] -0.03 | [10] -0.04 | [11] 0.013 | [12] 0.121 | [13] 0.048 | [14] -0.051 | [15] -0.015

SPC25 (UniProt Q9HBM1)
inactive: [1] 0.042 | [2] -0.02 | [3] 0.002 | [4] 0.03 | [5] 0.046 | [6] -0.019 | [7] 0 | [8] -0.01 | [9] 0.002 | [10] 0 | [11] 0.026 | [13] 0 | [14] 0.016 | [15] -0.004
active: [12] -0.266

SSB (UniProt E7ERC4)
inactive: [1] -0.059 | [2] 0.165 | [3] 0.007 | [4] 0.198 | [5] -0.078 | [6] -0.198 | [7] 0.171 | [8] 0.152 | [9] -0.108 | [10] -0.128 | [11] -0.063 | [12] 0.012 | [13] 0.105 | [14] -0.11 | [15] -0.092

SPTA1 (UniProt P02549)
inactive: [1] -0.009 | [2] 0.01 | [3] -0.042 | [4] 0.012 | [5] 0.02 | [6] -0.012 | [7] 0 | [8] 0.045 | [9] 0.013 | [10] -0.036 | [11] -0.016 | [12] 0.052 | [13] 0.052 | [14] 0.001 | [15] 0.019

SRM (UniProt P19623)
inactive: [1] 0.026 | [2] -0.009 | [3] -0.008 | [4] 0.009 | [5] 0.012 | [6] 0.009 | [7] 0.014 | [8] 0.041 | [9] 0.017 | [10] 0.045 | [11] 0.009 | [12] -0.029 | [13] 0.008 | [14] 0.052 | [15] 0.001

ST13 (UniProt P50502)
inactive: [1] 0.045 | [2] -0.034 | [3] 0 | [4] -0.027 | [5] 0.01 | [6] 0.017 | [7] 0.028 | [8] -0.017 | [9] -0.015 | [10] 0.044 | [11] 0.002 | [12] 0.108 | [13] 0.013 | [14] -0.015 | [15] 0.014

SPCS1, A0A5F9YFS9
inactive: [1] -0.047 | [2] -0.016 | [3] -0.101 | [4] 0.097 | [5] -0.121 | [6] 0.06 | [7] -0.013 | [8] 0.015 | [9] -0.048 | [10] 0.009 | [11] 0.044 | [12] 0.12 | [13] -0.079 | [14] 0.034 | [15] 0.014

SPCS2 (UniProt Q15005)
inactive: [1] -0.018 | [2] -0.008 | [3] -0.021 | [4] -0.016 | [5] 0.026 | [6] -0.028 | [7] -0.025 | [8] -0.023 | [9] 0.031 | [10] -0.021 | [11] -0.024 | [12] 0.169 | [13] 0.014 | [14] -0.019 | [15] 0.013

SRI (UniProt P30626)
inactive: [1] 0.034 | [2] -0.018 | [3] 0.037 | [4] 0.04 | [5] -0.028 | [6] 0.036 | [7] 0.008 | [8] -0.102 | [9] -0.05 | [10] 0.028 | [11] -0.091 | [12] 0.071 | [13] 0.013 | [14] -0.014 | [15] -0.041

SPTBN4 (UniProt Q9H254)
inactive: [1] -0.07 | [2] 0.103 | [3] -0.124 | [4] 0.074 | [5] -0.032 | [6] 0.081 | [7] -0.096 | [8] -0.017 | [9] 0.045 | [10] -0.067 | [11] 0.013 | [12] 0.114 | [13] 0.003 | [14] 0.036 | [15] -0.003

SRP14 (UniProt P37108)
inactive: [1] 0 | [2] 0.011 | [3] -0.004 | [4] -0.045 | [5] -0.001 | [6] -0.016 | [7] 0.016 | [8] -0.009 | [9] 0.011 | [10] -0.001 | [11] 0.009 | [12] 0.081 | [13] -0.015 | [14] -0.008 | [15] 0.032

SS18 (UniProt Q15532)
inactive: [1] 0.061 | [2] 0.114 | [3] -0.052 | [4] 0.133 | [5] -0.01 | [6] 0.045 | [7] 0.018 | [8] -0.088 | [9] -0.049 | [10] -0.004 | [11] -0.064 | [12] 0.026 | [13] 0.018 | [14] 0.093 | [15] -0.143

SRP68 (UniProt Q9UHB9)
inactive: [1] 0.056 | [2] 0.009 | [3] -0.042 | [4] 0.007 | [5] 0.036 | [6] -0.023 | [7] -0.014 | [8] -0.008 | [9] -0.014 | [10] 0.009 | [11] -0.038 | [12] -0.206 | [13] 0.028 | [14] -0.02 | [15] 0.006

SRSF6 (UniProt Q13247)
inactive: [1] 0.01 | [2] -0.003 | [3] 0.066 | [4] 0.049 | [5] 0.082 | [6] 0.097 | [7] 0.013 | [8] -0.092 | [9] 0.017 | [10] -0.006 | [11] -0.122 | [12] 0.132 | [13] 0.001 | [14] -0.204 | [15] 0.013
